Values quoted from earlier work as cited in patent publication US20080014149A1, “Methods and Compositions for Imaging and Biomedical Applications” (priority 2004, published 2008).
At least one read-out could not be matched to a standard name with certainty. No end group written: not given here.

Chains of the proteins cited; added tags and fusions are not shown. Residues count along the entry.
UniProt P14780, 94-707, species assumed: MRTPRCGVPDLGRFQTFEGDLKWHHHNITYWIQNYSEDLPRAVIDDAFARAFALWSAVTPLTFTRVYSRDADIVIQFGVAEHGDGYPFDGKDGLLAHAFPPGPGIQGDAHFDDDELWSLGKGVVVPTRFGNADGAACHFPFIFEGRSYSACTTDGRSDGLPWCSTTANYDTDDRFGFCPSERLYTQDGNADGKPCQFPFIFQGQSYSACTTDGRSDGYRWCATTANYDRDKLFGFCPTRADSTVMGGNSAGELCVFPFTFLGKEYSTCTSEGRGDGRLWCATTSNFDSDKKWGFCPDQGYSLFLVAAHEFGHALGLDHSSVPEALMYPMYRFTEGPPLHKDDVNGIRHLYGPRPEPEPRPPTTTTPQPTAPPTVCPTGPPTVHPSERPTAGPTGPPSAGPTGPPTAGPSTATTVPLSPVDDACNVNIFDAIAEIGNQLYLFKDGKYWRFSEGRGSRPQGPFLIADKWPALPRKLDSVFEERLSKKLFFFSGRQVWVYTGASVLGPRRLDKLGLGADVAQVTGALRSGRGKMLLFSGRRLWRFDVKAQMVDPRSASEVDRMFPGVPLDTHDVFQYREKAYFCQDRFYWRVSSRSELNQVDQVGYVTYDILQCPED

Biological target: MMP-9 (Homo sapiens, UniProt P14780)
Conditions: cleavage by MMP-9 from a dextran backbone; cited from earlier work

PVGLIG [well characterized MMP-9 substrate peptide]
kcat/Km: 7090 M⁻¹ s⁻¹
